Reference: PubChem BioAssay AID1259308 (NCATS, 2017)
Test: 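Candidate targets for better recombinant protein yield in mammalian cells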 (primary screen). System: human HEK293 embryonic kidney cells stably expressing firefly luciferase (HEK-CMV-Luc2-Hygro). Knock-down reagent: single siRNA against human genes, 0.8 pmol siRNA per well. Time to read-out: 72 h. Detection: 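Luciferase light (ONE-Glo) measured on one replicate plate set and viability (CellTiter-Glo) on the other, scaled to a negative control siRNA, with robust z-scores and luciferase per cell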. Direction: total luciferase, z-score and total luciferase, % of control: higher = more reporter protein produced. Rule for the call: 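An siRNA counts as active if its total luciferase robust z-score exceeds 3; genes with two or more such siRNAs out of three were retested with fresh siRNAs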. Meaning of the calls: active = raised luciferase; inactive = no rise.
In all, the deposit lists about 59,000 reagents; shown is an unselected part. Over the whole deposit, about 1,510 (2.6%) got an active call. 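Calls use total luciferase alone and ignore viability, so some active siRNAs may act by altering cell number.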 Entries without a mark were called inactive. The numbers tell different reagents against one gene apart. Further read-outs or replicates are left out here.

For RFX3 (regulatory factor X3) #1, what was measured?
total luciferase, z-score: 0.255; total luciferase, % of control: 87

What is on record for RFX3 (regulatory factor X3) #2?
total luciferase, z-score: -1.49; total luciferase, % of control: 52.2

For RFX3 (regulatory factor X3) #3, what was measured?
total luciferase, z-score: 0.211; total luciferase, % of control: 86.1

For SLC43A2 #1, what does the deposit list?
total luciferase, z-score: -0.282; total luciferase, % of control: 76.3

For SLC43A2 #2, what was measured?
total luciferase, z-score: 0.963; total luciferase, % of control: 101

For SLC43A2 #3, what does the deposit list?
total luciferase, z-score: -1.33; total luciferase, % of control: 55.4

For TBX19 (T-box transcription factor 19) #1, what was measured?
total luciferase, z-score: -0.308; total luciferase, % of control: 75.8

How did the screen score TBX19 (T-box transcription factor 19) #2?
total luciferase, z-score: -0.0849; total luciferase, % of control: 80.2

For TBX19 (T-box transcription factor 19) #3, how do the results read?
total luciferase, z-score: -0.769; total luciferase, % of control: 66.6

For TOP1MT (DNA topoisomerase I mitochondrial) #1, how do the results read?
total luciferase, z-score: 0.0506; total luciferase, % of control: 82.9

Which result is listed for TOP1MT (DNA topoisomerase I mitochondrial) #2?
total luciferase, z-score: -0.0613; total luciferase, % of control: 80.7

With TOP1MT (DNA topoisomerase I mitochondrial) #3, what was measured?
total luciferase, z-score: -0.13; total luciferase, % of control: 79.3

With FMR1 (fragile X messenger ribonucleoprotein 1) #1, how do the results read?
total luciferase, z-score: -1.27; total luciferase, % of control: 56.7

What is on record for FMR1 (fragile X messenger ribonucleoprotein 1) #2?
total luciferase, z-score: 1.51; total luciferase, % of control: 112

With FMR1 (fragile X messenger ribonucleoprotein 1) #3, how do the results read?
total luciferase, z-score: 0.12; total luciferase, % of control: 84.3

With OR51E1 (olfactory receptor family 51 subfamily E member 1) #1, what was measured?
total luciferase, z-score: 0.398; total luciferase, % of control: 89.8

Which result is listed for OR51E1 (olfactory receptor family 51 subfamily E member 1) #2?
total luciferase, z-score: -0.256; total luciferase, % of control: 76.8

For OR51E1 (olfactory receptor family 51 subfamily E member 1) #3, how do the results read?
total luciferase, z-score: 1.51; total luciferase, % of control: 112

Which result is listed for RNF14 (ring finger protein 14) #1?
total luciferase, z-score: -0.444; total luciferase, % of control: 73.1

How did the screen score RNF14 (ring finger protein 14) #2?
total luciferase, z-score: -1.28; total luciferase, % of control: 56.5

With RNF14 (ring finger protein 14) #3, what does the deposit list?
total luciferase, z-score: -0.623; total luciferase, % of control: 69.5

For HCRTR2 (hypocretin receptor 2) #1, what was measured?
total luciferase, z-score: 0.488; total luciferase, % of control: 91.6

With HCRTR2 (hypocretin receptor 2) #2, what does the deposit list?
total luciferase, z-score: -0.461; total luciferase, % of control: 72.7

With HCRTR2 (hypocretin receptor 2) #3, what does the deposit list?
total luciferase, z-score: -0.243; total luciferase, % of control: 77.1

With LYRM2 (LYR motif containing 2) #1, what was measured?
total luciferase, z-score: 0.356; total luciferase, % of control: 89

How did the screen score LYRM2 (LYR motif containing 2) #2?
total luciferase, z-score: 1.11; total luciferase, % of control: 104

How did the screen score LYRM2 (LYR motif containing 2) #3?
total luciferase, z-score: 1.37; total luciferase, % of control: 109

With HNRNPF (heterogeneous nuclear ribonucleoprotein F) #1, what was measured?
total luciferase, z-score: 0.0464; total luciferase, % of control: 82.8

Which result is listed for HNRNPF (heterogeneous nuclear ribonucleoprotein F) #2?
total luciferase, z-score: 1.79; total luciferase, % of control: 117

For HNRNPF (heterogeneous nuclear ribonucleoprotein F) #3, what does the deposit list?
total luciferase, z-score: 1.1; total luciferase, % of control: 104

For SLC35F1 #1, what does the deposit list?
total luciferase, z-score: -0.347; total luciferase, % of control: 75

How did the screen score SLC35F1 #2?
total luciferase, z-score: 1.47; total luciferase, % of control: 111

With SLC35F1 #3, what does the deposit list?
total luciferase, z-score: -0.875; total luciferase, % of control: 64.5

How did the screen score STX17-DT (STX17 divergent transcript) #1?
total luciferase, z-score: 0.821; total luciferase, % of control: 98.2

How did the screen score STX17-DT (STX17 divergent transcript) #2?
total luciferase, z-score: 0.324; total luciferase, % of control: 88.3

What is on record for STX17-DT (STX17 divergent transcript) #3?
total luciferase, z-score: -0.742; total luciferase, % of control: 67.1

For RNASE13 (ribonuclease A family member 13 (inactive)) #1, what does the deposit list?
total luciferase, z-score: 0.633; total luciferase, % of control: 94.5

What did the screen give for RNASE13 (ribonuclease A family member 13 (inactive)) #2?
total luciferase, z-score: -2.14; total luciferase, % of control: 39.2

What did the screen give for RNASE13 (ribonuclease A family member 13 (inactive)) #3?
total luciferase, z-score: 1.42; total luciferase, % of control: 110

What is on record for DDAH2 (DDAH family member 2, ADMA-independent) #1?
total luciferase, z-score: 0.452; total luciferase, % of control: 90.9

For DDAH2 (DDAH family member 2, ADMA-independent) #2, how do the results read?
total luciferase, z-score: -0.845; total luciferase, % of control: 65.1

What did the screen give for DDAH2 (DDAH family member 2, ADMA-independent) #3?
total luciferase, z-score: -0.742; total luciferase, % of control: 67.1

A few values from the entries so far.
LYRM2 (LYR motif containing 2) #2, total luciferase, z-score → 1.11
RNASE13 (ribonuclease A family member 13 (inactive)) #3, total luciferase, % of control = 110
OR51E1 (olfactory receptor family 51 subfamily E member 1) #3, total luciferase, % of control: 112
TBX19 (T-box transcription factor 19) #1, total luciferase, % of control = 75.8
For “total luciferase, z-score”, FMR1 (fragile X messenger ribonucleoprotein 1) #2 reads 1.51
